No constants are given. Whether binding was seen depends on the method and setting. Some entries that bind do so weakly or less than the wild type.
Key:
[1] = target: human IGF-1R, native, on MCF-7 cells or on hIGF-1R transfected cells (human) (UniProt P08069); test: FACS on MCF-7 cells
[2] = target: human IGF-1R, native, on MCF-7 cells or on hIGF-1R transfected cells (human) (UniProt P08069); test: FACS titration on MCF-7 cells

By UniProt entry, the sequences of proteins in these tests, tags left out. Where a name states a change or a piece, a line headed by the entry shows the natural chain unless it says otherwise.
UniProt P08069: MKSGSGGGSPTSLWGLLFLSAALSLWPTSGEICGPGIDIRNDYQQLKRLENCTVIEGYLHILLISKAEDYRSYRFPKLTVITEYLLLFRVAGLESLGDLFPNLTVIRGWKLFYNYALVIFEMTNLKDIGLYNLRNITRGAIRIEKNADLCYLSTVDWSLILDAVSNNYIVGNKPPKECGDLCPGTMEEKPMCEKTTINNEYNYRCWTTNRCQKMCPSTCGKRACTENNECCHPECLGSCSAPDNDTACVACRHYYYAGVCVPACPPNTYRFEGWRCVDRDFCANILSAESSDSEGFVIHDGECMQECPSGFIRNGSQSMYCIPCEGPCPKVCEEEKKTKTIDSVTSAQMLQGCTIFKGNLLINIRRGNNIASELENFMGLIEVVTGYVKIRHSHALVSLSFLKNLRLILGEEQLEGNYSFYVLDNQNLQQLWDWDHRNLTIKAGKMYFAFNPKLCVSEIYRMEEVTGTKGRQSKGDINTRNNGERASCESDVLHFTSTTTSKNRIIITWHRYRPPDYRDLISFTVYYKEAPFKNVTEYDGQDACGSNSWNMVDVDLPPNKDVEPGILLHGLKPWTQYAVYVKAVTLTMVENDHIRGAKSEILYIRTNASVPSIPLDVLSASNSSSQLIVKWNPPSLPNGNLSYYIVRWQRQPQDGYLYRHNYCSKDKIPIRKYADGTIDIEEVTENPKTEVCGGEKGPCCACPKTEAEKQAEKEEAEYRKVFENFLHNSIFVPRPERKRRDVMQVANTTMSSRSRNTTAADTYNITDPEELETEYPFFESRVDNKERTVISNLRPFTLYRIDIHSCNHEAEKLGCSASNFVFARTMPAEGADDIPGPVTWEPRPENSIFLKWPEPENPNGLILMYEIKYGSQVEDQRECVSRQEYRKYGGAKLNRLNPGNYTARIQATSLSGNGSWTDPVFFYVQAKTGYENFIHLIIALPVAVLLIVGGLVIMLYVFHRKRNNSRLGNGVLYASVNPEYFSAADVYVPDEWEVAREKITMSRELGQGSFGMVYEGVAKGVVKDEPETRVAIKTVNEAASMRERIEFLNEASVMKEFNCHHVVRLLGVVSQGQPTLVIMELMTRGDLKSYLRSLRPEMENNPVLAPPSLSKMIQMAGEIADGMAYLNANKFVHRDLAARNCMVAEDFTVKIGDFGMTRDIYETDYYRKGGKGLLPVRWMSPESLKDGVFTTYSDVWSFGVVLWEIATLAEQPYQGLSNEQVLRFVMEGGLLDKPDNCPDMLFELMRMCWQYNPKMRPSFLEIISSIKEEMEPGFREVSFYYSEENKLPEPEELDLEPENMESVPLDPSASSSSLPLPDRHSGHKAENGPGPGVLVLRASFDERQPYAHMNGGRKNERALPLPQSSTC

B1: hz208F2 VH3/VL3 (antibody, human IgG1, kappa, V domains shown)
VH: QVQLVQSGAEVKKPGASVKMSCKASGYTFTSYYIYWVKQAPGQGLEWLGWIWPGDGSTKYNEKFQGRVTLTADKSSNTAYMFLSSLRSEDTAVYFCASPMITPNYAMDYWGQGTLVTVSS
VL: DIQMTQSPSSLSASVGDRVTISCRASQDISKYLNWYQQKPGKAPKLLIYYTSRLHSGVPSRFSGRGSGTDYSLTISNLQPEDFATYFCQQGSTLPYTFGGGTKVEIKR
[1]
  binding: binds
[2]
  binding: binds
